Measured values reported in the supplement of paper PMC10735217.
Structures can show the parent of a compound that is named as a salt. This is one part of the list. This data set is noisy: repeats of one test often differ as much as different tests do.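 In a drug-repurposing library screen, luminescence reads luciferase driven by eight TEAD-binding elements, stably integrated into human kidney-derived cells. Compounds scoring over five robust Z scores above the plate mean are called hits.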

System: HEK293A TEAD-LUC reporter
Experiment: TEAD-luciferase reporter activity (YAP activation), robust Z score vs plate; higher = stronger YAP/TEAD activation
Conditions: 24 h

SMILES	TEAD-luciferase reporter activity (compound concentration: 2 uM)	TEAD-luciferase reporter activity (compound concentration: 200 nM)	TEAD-luciferase reporter activity (compound concentration: 10 uM)
CC[C@H](C)C(=O)O[C@H]1C[C@@H](C)C=C2C=C[C@H](C)[C@H](CC[C@@H]3C[C@@H](O)CC(=O)O3)[C@H]21 [lovastatin, LovaDerm]	inactive: -1.61	–	–
CC[C@H](C)C(=O)O[C@H]1C[C@@H](C)C=C2C=C[C@H](C)[C@H](CC[C@@H]3C[C@@H](O)CC(=O)O3)[C@H]21	–	inactive: 2.6	inactive: -1.8
CC(=O)c1ccc(C#C[C@@]2(O)CC[C@@]3(C)[C@@H](CC[C@@H]4[C@@H]3CC[C@]3(C)[C@@H](C(C)=O)CC[C@@H]43)C2)cc1	inactive: -1.1	inactive: -0.279	inactive: 3.7
C[N+]1(C)C2CCC1CC(OC(=O)C(O)c1ccccc1)C2 (stereo unspecified)	inactive: -0.136	inactive: -0.846	inactive: -0.68
O=c1[nH]c(=O)n([C@@H]2O[C@H](CO)[C@@H](O)[C@H]2O)cc1/C=C/Br	inactive: -0.326	inactive: -1.22	inactive: -1.07
CC(=O)NNC(=O)N1Cc2ccccc2Oc2ccc(Cl)cc21	inactive: 0.473	inactive: -0.688	inactive: -0.863
CCOC(=O)CCC(=O)O[C@H]1[C@H](O[C@@H]2[C@@H](C)[C@H](O[C@H]3C[C@@](C)(OC)[C@@H](O)[C@H](C)O3)[C@@H](C)C(=O)O[C@H](CC)[C@@](C)(O)[C@H](O)[C@@H](C)C(=O)[C@@](C)(F)C[C@@]2(C)O)O[C@H](C)C[C@@H]1N(C)C	inactive: -0.819	inactive: -0.612	inactive: 1.44
CC(=O)Oc1ccccc1C(=O)Nc1ncc([N+](=O)[O-])s1	inactive: 3.13	inactive: 1.32	active: 5.01
Cc1ccccc1NC(=O)Nc1ccc(CC(=O)N[C@@H](CC(C)C)C(=O)N[C@@H](CC(=O)O)C(=O)N[C@H](C(=O)O)C(C)C)cc1	inactive: -0.711	inactive: -0.825	inactive: 0.938
C[C@H]1C[C@H]2[C@@H]3C[C@H](F)C4=CC(=O)C=C[C@]4(C)[C@@]3(F)[C@@H](O)C[C@]2(C)[C@@]1(O)C(=O)CO [Diflorasone]	inactive: 0.735	inactive: 0.529	inactive: -0.000744
CC(=O)OC1CC2(C)C(CC(O)C3C4(C)CCC(O)C(C)C4CCC32C)/C1=C(/CCC=C(C)C)C(=O)O (stereo unspecified) [fusidic acid]	inactive: -1.06	–	–
CC(=O)OC1CC2(C)C(CC(O)C3C4(C)CCC(O)C(C)C4CCC32C)/C1=C(/CCC=C(C)C)C(=O)O (stereo unspecified) [fusidic acid, Cempra]	–	active: 5.61	inactive: -0.221
O=C1OC(OC(=O)c2cccnc2Nc2cccc(C(F)(F)F)c2)c2ccccc21 (stereo unspecified) [talniflumate]	inactive: -0.733	inactive: -0.927	inactive: -0.956
CCN(CC)CCOc1c(Br)cccc1CO	inactive: 0.862	inactive: 1.92	inactive: -0.218
NC(=O)CCC/N=C(\c1ccc(Cl)cc1)c1cc(F)ccc1O [progabide]	inactive: -0.357	inactive: -2.41	inactive: 2.23
COC(=O)COc1ccc(S(=O)(=O)NCCc2ccccc2)cc1	inactive: -0.716	inactive: 2.03	inactive: 1.38

SMILES	TEAD-luciferase reporter activity (compound concentration: 2 uM)	TEAD-luciferase reporter activity (compound concentration: 200 nM)	TEAD-luciferase reporter activity (compound concentration: 10 uM)
NS(=O)(=O)Nc1ncnc(OCCOc2ncc(Br)cn2)c1-c1ccc(Br)cc1	inactive: -1.3	inactive: -0.839	inactive: 0.855
N#CC(c1ccc(Cl)cc1)c1ccc(-n2ncc(=O)[nH]c2=O)cc1Cl (stereo unspecified) [clazuril]	inactive: 0.0436	inactive: -1.88	inactive: 0.72
CC(C(=O)O)c1cccc(Oc2ccccc2)c1 (stereo unspecified) [Fenoprofen calcium]	inactive: -0.0851	inactive: -1.48	inactive: 0.965
OCC1C[O][Zn][O]1 (stereo unspecified) [zinc glycerolate]	inactive: -1.12	inactive: -0.0653	inactive: -1.16
C[C@H](CS)C(=O)N1C[C@@H](Sc2ccccc2)C[C@H]1C(=O)O [Zofenoprilat]	inactive: -0.273	inactive: -0.363	inactive: -0.995
CCC(=O)N1Cc2ccccc2CC2(CCCN2Cc2ccc(OC)cc2)C1 (stereo unspecified)	–	active: 5.19	inactive: 1.49
O=C(O)CN1CCN(CC(=O)O)CCN(CC(=O)O)CCN(CC(=O)O)CC1 [Gadoteric acid]	inactive: 0.215	inactive: 1.24	inactive: 0.809
C[C@]1(CO)C2CC[C@@]3(CO3)[C@@H](C/C=C3/C(=O)OC[C@H]3OC(=O)/C=C/c3ccccc3)[C@]2(C)CC[C@H]1O (stereo partly specified)	inactive: -0.242	inactive: -0.514	inactive: 0.0649
CNCc1ccc(OC)c([C@@]2(N3CCC[C@H]3c3ncco3)C(=O)N(S(=O)(=O)c3ccc(OC)cc3)c3ccc(Cl)cc32)c1	inactive: 1.08	inactive: -0.16	inactive: -1.78
O=C(Nc1ccc(Cl)c(S(=O)(=O)N2CCNCC2)c1O)Nc1cccc(F)c1Cl [Elubrixin tosylate]	inactive: -0.321	inactive: -0.709	inactive: 4.94
CC(=O)Nc1nnc(S(N)(=O)=O)s1 [Acetazolamide]	inactive: -1.73	–	–
CC(=O)Nc1nnc(S(N)(=O)=O)s1	–	inactive: -0.522	inactive: -0.928
Cc1cc(NS(=O)(=O)c2ccc(/N=C/c3ccccc3O)cc2)no1	inactive: 0.972	inactive: -0.842	inactive: 1.38
C[C@@H](Cc1ccc(-c2ncc(NC(=O)C(F)(F)F)o2)cc1)N1CC(c2cccc(Cl)c2)OC1=O (stereo partly specified)	inactive: -0.069	inactive: -1.4	inactive: 2.26
CCC1(c2c[nH]cn2)Cc2ccc(F)cc2C1 (stereo unspecified)	inactive: -0.733	inactive: 0.392	inactive: -0.635
CC(C)[C@@H]1CC[C@H](C)C[C@H]1OCC(=O)Nc1cc(Oc2ccc(C(=O)O)cc2)ccc1[N+](=O)[O-]	inactive: -0.79	inactive: -0.369	inactive: 1.72

Pulled one by one from the list above (two):
SMILES	TEAD-luciferase reporter activity (compound concentration: 2 uM)	TEAD-luciferase reporter activity (compound concentration: 200 nM)	TEAD-luciferase reporter activity (compound concentration: 10 uM)
C[N+]1(C)C2CCC1CC(OC(=O)C(O)c1ccccc1)C2 (stereo unspecified)	inactive: -0.136	inactive: -0.846	inactive: -0.68
CC(=O)OC1CC2(C)C(CC(O)C3C4(C)CCC(O)C(C)C4CCC32C)/C1=C(/CCC=C(C)C)C(=O)O (stereo unspecified) [fusidic acid, Cempra]	–	active: 5.61	inactive: -0.221
